# Assay results published in patent US20020065259A1, “Glucocorticoid blocking agents for increasing blood-brain barrier permeability” (priority 2000, published 2002).
# Where two headings read alike, the source gives them in different places. For at least one compound, name, drawing or mass did not settle the structure.
# Key:
# BBB permeability [1] = assay: Example 2: mifepristone pellet in rats, brain haloperidol and clozapine levels and brain dopamine metabolites; assay type: in vivo; details: rats with placebo pellet; haloperidol 1 mg/kg s.c. or clozapine 15 mg/kg s.c., 2 h before sacrifice
# Protocol: Rats (male Sprague Dawley 175-200 grams) are maintained, 3 rats per cage, under controlled temperature and lighting (12 hours light/12 hours dark) with food and water ad libitum. […] Two hours prior to sacrifice the animals are injected with either haloperidol (1 mg/kg s.c; RBI Natick, Mass.) or an equivalent volume of vehicle (0.3% tartaric acid, pH 5.3) or with either clozapine (15 mg/kg s.c.; RBI, Natick, Mass.) or vehicle (0.9% saline plus 0.8% acetic acid). Animal sacrifice is by decapitation during the first four hours of the light cycle. Blood is collected and brains removed and frozen on dry ice for storage at −80° C. Frozen brains are sliced into 250 μm sections with a cryostat. […] Dopamine metabolites homovanillic acid (HVA) and dihydroxyphenylacetic acid (DOPAC) are measured in the brains of the experimental animals. […] DOPAC and HVA were detected using an electrochemical detector. […] Brain clozapine levels are analyzed by National Medical Services, Inc. (Willow Grove, PN) while brain and plasma haloperidol and reduced haloperidol and plasma clozapine levels are analyzed by Analytical Psychopharmacology Laboratories (Nathan Kline Institute, Orangeburg, N.Y.), both by gas chromatography.
# BBB permeability [2] = details: adrenalectomized rats with vehicle (placebo) pellets; haloperidol 1 mg/kg s.c. or clozapine 15 mg/kg s.c., 2 h before sacrifice
smiles,measurement,setting,value
CN1CCN(C2=Nc3cc(Cl)ccc3Nc3ccccc32)CC1 [clozapine],measured levels of HVA and DOPAC in the brain,BBB permeability [1],elevated
same,measured levels of HVA and DOPAC in the brain,BBB permeability [2],elevated
